# PubChem BioAssay AID1259415 (National Center for Advancing Translational Sciences (NCATS), 2018)
# The campaign covered roughly 410,000 compounds. About 18,000 (4.4%) were called active. Inconclusive results, whose numbers are uncertain, are shown with a selection of clear calls. Rule as the data show it: active = activity change below about -60%; inconclusive = no clear call, values can overlap the other calls; inactive = above about -39%.
# Assay: qHTS Assay for inhibitors of the human cytomegalovirus (HCMV)
# Conditions: HFF cells, HCMV-luciferase reporter, 72 h; at 57.5 µM; stronger effect = lower value
# Procedure, shortened: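 HFF cells seeded 16 h at 37C, treated with compounds, infected with luciferase-reporter HCMV at MOI 1 PFU/cell; luciferase read at 72 h post infection, normalized to buffer-only and Salinomycin controls.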
# % is scaled to controls: 0 for no effect and ±100 for the full control effect.
row,SMILES,"activity change, negative = inhibition"
1,Cc1nc2sc(C(N)=O)c(N)c2c2c1CCCC2,inconclusive: -59.7%
2,CCc1ccc(NC(=S)N(CCN2CCOCC2)Cc2ccccc2F)cc1,inconclusive: -49.4%
3,Cc1nc2cccnc2n1-c1cccc(C(=O)N2CCN(c3ccc(Cl)cc3)CC2)c1,inconclusive: 0%
4,CCOC(=O)c1c(C)nc2c3ccccc3ccn12,inactive: 208%
5,C(=C\c1ccccn1)/c1cccnc1,inactive: 22.8%
6,S=C(Nc1cccnc1)NC1CCCC1,inconclusive: -47.5%
7,CC(=O)Nc1ccccc1NC(=O)c1cc(C)ccc1C,inconclusive: -42.9%
8,Cc1ccc(NC(=S)N2CCSC2c2cccs2)cc1 (configuration not stated),inconclusive: -42.5%
9,CC(=O)OC1CCC2(C)C(CCC3C4CC=C(C(C)=O)C4(C)OC(=O)CC32)C1 (configuration not stated),active: -76.1%
10,Cc1ccc(C2(c3ccccc3)NC(=O)N(CC(=O)NC3CCCCC3)C2=O)cc1C (configuration not stated),inconclusive: -49.3%
11,CCCN1CCN(CCCNC(=O)CN2C(=O)COc3ccc(C(C)(C)C)cc32)CC1,inconclusive: -42.8%
12,COc1ccc(-n2ccnc2SCC(=O)Nc2ccc(F)cc2F)cc1,active: -91.2%
13,O=C(NCCc1ccccc1)c1ccc(CS(=O)(=O)c2ccc(Br)cc2)o1,inconclusive: -41.9%
14,COc1ccc(CCC(=O)N2CCc3c([nH]c4ccccc34)C2c2ccc(F)cc2)cc1 (configuration not stated),active: -80.5%
15,Cc1ccc(OCCCC(=O)Nc2ccccc2C(F)(F)F)cc1,inconclusive: -58.3%
16,CCSc1nnc2n(-c3cccc(C)c3)c(=O)c3c4c(sc3n12)CCCC4,inactive: -14.6%
17,CCCC(CCC(=O)Nc1ccn(-c2ccccc2)n1)C(=O)O (configuration not stated),inconclusive: 0%
18,CCN1C(=O)C(CC(=O)Nc2ccc(Br)cc2)N(CCCc2ccccc2)C1=S (configuration not stated),inconclusive: -54.7%
19,COc1ccc(N(CC(=O)N/N=C/c2cccs2)S(=O)(=O)c2ccccc2)cc1,active: -66.7%
20,c1ccc2c(c1)OCCOCCOCCOCCOCCOc1ccccc1OCCOCCOCCO2,active: -97.9%
21,O=C(NCCCc1ccccc1)c1c(O)nc2sccn2c1=O,active: -63.9%
22,COc1ccc2c(c1)c(=O)c(C(=O)c1ccc(F)cc1)cn2CC(=O)Nc1ccc2c(c1)OCCO2,inconclusive: -53.7%

row,SMILES,"activity change, negative = inhibition"
1,COc1ccc(-c2cn3cccnc3n2)cc1NC(=O)c1ccccc1C(F)(F)F,inconclusive: -40.3%
2,CC1(c2nnc(Cc3ccccc3)o2)CC(c2ccc([N+](=O)[O-])cc2)=NO1 (configuration not stated),inactive: -22.4%
3,Cc1ccc(S(=O)(=O)N2CCC(C(=O)N3CCc4ccccc43)CC2)cc1C,inconclusive: -52%
4,O=Nc1c(O)n(Cc2ccc(Cl)cc2Cl)c2ccccc12,inconclusive: -48.7%
5,Cc1cccc(C(=O)NC(=S)NNC(=O)c2cccs2)c1,inconclusive: -50.9%
6,Cc1cc(C(=O)COc2ccccc2C(N)=O)c(C)n1CC1CCCO1 (configuration not stated),active: -62%
7,O=C(CSCc1ccccc1)N1CCN(S(=O)(=O)c2cccc(F)c2)CC1,inactive: -21.8%
8,O=C(CN(c1ccc2c(c1)OCCO2)S(=O)(=O)c1ccccc1)NCc1ccc(Cl)cc1,inconclusive: -41.1%
9,Cc1ccc(-c2c(C(=O)NC(C)C)oc(=O)c3ccccc23)cc1,inconclusive: -52%
10,CC(=O)c1c(C)n(-c2ccccc2)c2ccc(OCC(N)=O)cc12,inconclusive: -48.4%
11,CN(C(=O)CSc1nncn2c1cc1occc12)c1ccccc1,active: -97.7%
12,CC1(C)CC(N2CCOCC2)=CC(=[N+]2CCOCC2)C1,inconclusive: -41.6%
13,O=C(Nc1ccc2c(c1)C(=O)OC2)c1ccccc1Cl,active: -91.4%
14,Cc1cc(C(=O)OCC(=O)N(C)c2ccccc2)ccc1[N+](=O)[O-],active: -62.9%
15,Cc1cc(C)c(OCC(=O)Nc2cc(C(=O)O)cc(C(=O)O)c2)cc1C,inconclusive: -46.5%
16,Cc1cc(C(=O)NNS(=O)(=O)c2cc(C(=O)O)ccc2Cl)c(C)n1-c1ccccc1,inconclusive: -59.9%
17,CCCn1c(SCC(=O)Nc2nonc2C)nnc1-c1ccoc1C,inconclusive: -43%
18,O=C(Nc1ccc(F)cc1)c1ccc2nsnc2c1,inactive: 3.29%
19,Cc1nnc(-c2ccccc2)nc1N1CCOCC1,inactive: -2.61%
20,COc1cc(C(=O)N/N=C(\c2ccccc2)c2ccccn2)cc(OC)c1OC,active: -102%
21,COc1ccc(CCNC(=O)c2cc(-c3ccccc3O)n[nH]2)cc1OC,inconclusive: -47.7%
22,O=S(=O)(Nc1cc(S(=O)(=O)N2CCOCC2)ccc1N1CCOCC1)c1ccc2c(c1)OCCO2,inactive: -10%

# Gathered by group, those above containing two or more sulfur atoms.
row,SMILES,"activity change, negative = inhibition"
8,Cc1ccc(NC(=S)N2CCSC2c2cccs2)cc1 (configuration not stated),inconclusive: -42.5%
16,CCSc1nnc2n(-c3cccc(C)c3)c(=O)c3c4c(sc3n12)CCCC4,inactive: -14.6%
19,COc1ccc(N(CC(=O)N/N=C/c2cccs2)S(=O)(=O)c2ccccc2)cc1,active: -66.7%
5,Cc1cccc(C(=O)NC(=S)NNC(=O)c2cccs2)c1,inconclusive: -50.9%
7,O=C(CSCc1ccccc1)N1CCN(S(=O)(=O)c2cccc(F)c2)CC1,inactive: -21.8%
22,O=S(=O)(Nc1cc(S(=O)(=O)N2CCOCC2)ccc1N1CCOCC1)c1ccc2c(c1)OCCO2,inactive: -10%

# More records:

row,SMILES,"activity change, negative = inhibition"
1,Cc1ccc2cc(C)c(SCC(=O)NCC3CCCO3)nc2c1 (configuration not stated),inconclusive: -46.4%
2,CC(C)(C)NC(=O)C(c1ccc(O)cc1)N(C(=O)CCC(=O)Nc1nccs1)c1ccccc1F (configuration not stated),inconclusive: -40.6%
3,Cc1nnc2c3ccccc3nc(Nc3ccc(F)cc3Cl)n12,inconclusive: 0%
4,Cc1ccccc1NC(=O)CSc1nc(=O)n(CCN2CCOCC2)c2c1CCCC2,inactive: -10.3%
5,CCOC(=O)c1cc(-c2ccc(F)cc2)n(CCC(=O)Nc2nc3cc(C)c(C)cc3s2)c1C,inconclusive: 0%
6,O=S1(=O)N[C@H](Cc2ccccc2)COc2cc(Br)ccc21,inactive: -17.2%
7,CN1CCN(CC(=O)Nc2cc(S(=O)(=O)N3CCOCC3)ccc2Cl)CC1,inconclusive: -43%
8,CCCCCOc1ccc(C(O)C(CN2CCOCC2)c2ccccc2)cc1 (configuration not stated),inactive: -25.9%
9,CCNC(=O)NCc1c(C)c(C)n(Cc2ccccc2)c1-n1cccc1,inconclusive: -49%
10,CCS(=O)(=O)c1nc(S(=O)(=O)c2ccc(C)cc2)c(N2CCCC2)s1,inactive: -30%
11,Cc1cc(C(C)(C)C)cc(C)c1S(=O)(=O)N1CCN(C(=O)c2cc([N+](=O)[O-])c[nH]c2=O)CC1,active: -64.3%
12,C[n+]1ccccc1/C=C/c1ccccc1Cl,active: -78.5%
13,O=C(CNC(=O)c1ccccc1F)NCCc1ccc(Cl)cc1,inactive: 13.1%
14,CCOC(=O)N1CCN(C(=O)CSc2ccc(-c3ccncc3)nn2)CC1,inconclusive: -53.1%
15,CS(=O)(=O)Nc1cccc(NC(=O)c2ccc(-n3ccnc3)c3ccoc23)c1,active: -63.1%
16,O=C(c1cccs1)N1CCCc2cc(NS(=O)(=O)c3ccc(Br)cc3)ccc21,inconclusive: -40.5%
17,Cc1ccc(S(=O)(=O)NCc2csc(C)n2)cc1,inconclusive: -41.4%
18,CC1=NN(c2nc(-c3ccc(C)cc3)cs2)C(=O)C1N=Nc1ccc(C(N)=O)cc1 (configuration not stated),inconclusive: -50%
19,CC(=O)NCCC(=O)N1CCCC(CNC(=O)c2ccc(-c3ccccc3)cc2)C1 (configuration not stated),inconclusive: -41.4%
20,O=S(=O)(Cc1ccccc1)N1CCC(N2CCN(c3ccccc3)CC2)CC1,inconclusive: -43.5%
21,C=CC[N+]1(C)CC[C@]23c4c5ccc(O)c4O[C@H]2C(=O)CC[C@@]3(O)[C@H]1C5 (some centres not stated),inactive: 35.4%
22,COc1ccc2[nH]c3c(c2c1)CCN1C(=O)C(CC(=O)NCc2ccc(OC)c(OC)c2)C[C@H](C(=O)N2CCCCC2)[C@@]31CCc1ccccc1 (some centres not stated),inconclusive: -42.6%

row,SMILES,"activity change, negative = inhibition"
1,COc1ccccc1CNC(=O)c1oc2ccc(S(=O)(=O)N3CCOCC3)cc2c1C,inactive: -16.3%
2,CNC(=O)CN(Cc1ccccc1)S(=O)(=O)c1ccc(Cl)cc1,inactive: 14.9%
3,C=CCc1cc(Cl)ccc1OCCCNCCO,inconclusive: -46.8%
4,COc1cc([N+](=O)[O-])ccc1NC(=O)COC(=O)CCS(=O)(=O)c1ccc(C)cc1,inconclusive: -43.3%
5,COc1cc(/C=C2/SC(=S)N(CCC(=O)N3CCN(C)CC3)C2=O)cc(OC)c1OC,inconclusive: -50.9%
6,Fc1ccc(-c2csc(N3CCC(c4ccccc4)C3)n2)cc1 (configuration not stated),inactive: 12.2%
7,CCOC(=O)C1(CCOC)CCN(C(C)CCc2ccc(OC)cc2)CC1 (configuration not stated),inactive: -26.2%
8,Cc1cccc(NC(=O)CCCN2C(=O)C3CC=CCC3C2=O)c1 (configuration not stated),inconclusive: -47.4%
9,C#CCOCCOCCOCCNc1nc(N2CCOCC2)nc(N2CCN(C(=O)[C@H](Cc3ccc(O)cc3)n3cc([C@@H](N)CC(C)C)nn3)CC2)n1,inactive: 10.6%
10,Cc1cc(C)c2c(=O)n3c(nc2c1)C(Cc1ccccc1)NC(=O)c1cc2ccccc2cc1-3 (configuration not stated),active: -71.9%
11,N#Cc1nc(-c2cccc3ccccc23)oc1N1CCCCC1,inactive: 20.4%
12,CCCSc1nc2sc3c(c2c(=O)n1-c1ccc(C)cc1)CCCC3,inactive: 5.57%
13,Cc1ccccc1-c1nc(-c2ccc(NC(=O)c3cccs3)cc2)no1,inactive: 14.2%
14,CCOC(=O)c1c(S(=O)(=O)NCC(=O)Nc2cccc(SC)c2)c(C)n(C)c1C,inactive: -7.98%
15,Cc1c(C)c2ccc(OCC(=O)NCCCN3CCCC3=O)cc2oc1=O,inconclusive: -46.9%
16,COc1ccc(CCn2c(C)cc(C(=O)CSc3nc(N)cc(=O)[nH]3)c2C)cc1,active: -95.3%
17,COc1c(S(=O)(=O)N2CCN(c3ccc(F)cc3)CC2)ccc(Cl)c1Cl,inconclusive: -53.4%
18,FC(F)(F)c1ccncc1-c1nnnn1-c1ccc(Cl)cc1,inconclusive: -45.4%
19,COc1ccc([C@@H]2C(C#N)=C(N)S[C@@H](c3ccccc3)[C@@H]2[N+](=O)[O-])cc1,inconclusive: -55.5%
20,COc1cccc(CNc2nc3cc(-c4ccc(OC)c(OC)c4)sc3c(=O)n2C)c1,inactive: 21%
21,O=C1/C(=C/c2cccs2)SC(=S)N1N1CCOCC1,inconclusive: -55.9%
